Patent US20220119541A1
No constants are given. Whether binding was seen depends on the method and setting. Binding can be weak; no strength is given.

Assays:
[1] = target: monkey GITR (full length, on cells) (monkey); experiment: flow cytometry (FACS) on 293F-cGITR cells
[2] = target: monkey GITR (full length, on cells) (monkey); experiment: FACS on 293F-cGITR cells, MFI [panel B]

Binder | binding [1] | binding [2]
3503-hab064 (antibody, V domains shown) VH: QVQLVESGGGVVQPGRSLRLSCAASGFTFSSYGMHWVRQAPGKGLEWVAVIWYETSNKYYADSVKGRFTISRDNSKNTLYLQMNNLRAEDTAVYYCARYGGNSGWYWYFDLWGRGTLVTVSS VL: DIQLTQSPSFLSASVGDRVTITCRASQGISSFLAWYQQKPGTAPKLLIYAASTLQSGVPSRFSGSGSGTEFTLTISSLQPEDFATYCCQQLNSYPFTFGQGTKLEIK | binds | binds
3503-hab070 (antibody, V domains shown) VH: QVQLVESGGGVVQPGRSLRLSCAASGFTFSSYGMHWVRQAPGKGLEWVAVIWYETSNKFYVDSVKGRFTISRDNSKNTLYLQMNSLRAEDTAVYYCARYGASSGWYWYFDLWGRGTLVTVSS VL: DIQLTQSPSFLSASVGDRVTITCRASQGISSFLAWYQQKPGKAPKLLIYAASTLQSGVPSRFSGSGSGTEFTLTISSLQPEDFATYCCQQLNSYPFTFGQGTKLEIK | binds | binds

The next lines start with the values.

binding [1] | binding [2] | Binder
binds |  | 3503-mAb064 (antibody, V domains shown) VH: QVQLVESGGGVVQPGRSLRLSCAASGFTFSSYGMHWVRQAPGKGLEWVAVIWYETSNKYYADSVKGRFTISRDNSKNTLYLQMNNLRAEDTAVYYCARYGGNSGWYWYFDLWGRGTLVTVSS VL: DIQLTQSPSFLSASVGDRVTITCRASQGISSFLAWYQQKPGTAPKLLIYAASTLQSGVPSRFSGSGSGTEFTLTISSLQPEDFATYCCQQLNSYPFTFGQGTKLEIK
binds | binds | 3503-hab070e1 (antibody, V domains shown) VH: QVQLVESGGGVVQPGRSLRLSCAASGFTFSSYGMHWVRQAPGKGLEWVAVIWYETSNKFYVDSVKGRFTISRDNSKNTLYLQMNSLRAEDTAVYYCARYGASSGWYWYFDLWGRGTLVTVSS VL: DIQLTQSPSFLSASVGDRVTITCRASQGISSFLAWYQQKPGKAPKLLIYAASTLQSGVPSRFSGSGSGTEFTLTISSLQPEDFATYYCQQLNSYPFTFGQGTKLEIK
binds |  | 3503-mAb070 (antibody, V domains shown) VH: QVQLVESGGGVVQPGRSLRLSCAASGFTFSSYGMHWVRQAPGKGLEWVAVIWYETSNKFYVDSVKGRFTISRDNSKNTLYLQMNSLRAEDTAVYYCARYGASSGWYWYFDLWGRGTLVTVSS VL: DIQLTQSPSFLSASVGDRVTITCRASQGISSFLAWYQQKPGKAPKLLIYAASTLQSGVPSRFSGSGSGTEFTLTISSLQPEDFATYCCQQLNSYPFTFGQGTKLEIK
